# Results reported in PubChem BioAssay AID2718 (Broad Institute, 2010).
# Sequences of proteins named here, by UniProt entry; tags and fusion partners are left off.
# UniProt O15379, whole entry, looked up: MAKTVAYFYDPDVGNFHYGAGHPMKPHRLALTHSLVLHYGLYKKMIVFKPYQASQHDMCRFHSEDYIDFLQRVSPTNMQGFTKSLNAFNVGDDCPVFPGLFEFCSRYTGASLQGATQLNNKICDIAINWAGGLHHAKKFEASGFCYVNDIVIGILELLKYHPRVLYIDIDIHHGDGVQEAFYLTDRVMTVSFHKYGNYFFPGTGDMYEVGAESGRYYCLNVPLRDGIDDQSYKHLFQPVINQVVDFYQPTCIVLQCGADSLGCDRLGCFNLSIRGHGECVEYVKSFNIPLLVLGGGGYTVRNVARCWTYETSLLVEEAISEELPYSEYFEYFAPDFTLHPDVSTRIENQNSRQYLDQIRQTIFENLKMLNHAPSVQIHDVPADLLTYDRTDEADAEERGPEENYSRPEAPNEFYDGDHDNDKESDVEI
# About 480 (0.15%) of roughly 320,000 compounds were called active. Inconclusive results, whose numbers are uncertain, are shown with a selection of clear calls. No stated cut-off is given here; in the data, active means inhibition above about 26% (passing the limit was not always enough); inconclusive means no clear call, values can overlap the other calls.
# Biological target: Histone deacetylase 3 (Homo sapiens) (UniProt O15379)
# Assay: HDAC3 deacetylase inhibitors, primary screen, biochemical, fluorescence, cell-free homogeneous (AID 2718)
# Details: recombinant HDAC3, fluorogenic peptide/trypsin coupled, at 8.3 µM, hits give high values
row,Compound,inhibition
1,O=C(Nc1ccccc1O)c1cccc(S(=O)(=O)Nc2ccccc2O)c1,inconclusive: 27.8%
2,c1ccc(-n2ncc3c(N4CCN(CCOc5cccc6ccccc56)CC4)ncnc32)cc1,inactive: -12.6%
3,CN1C(=O)NC(c2ccccc2)C2=C1CN(c1ccc3ccccc3c1)C2=O (stereo not given),inactive: 6.37%
4,COc1ccc2[nH]c(=O)c(CN(CCCN(C)C)C(=O)Nc3ccc(F)cc3)cc2c1,inconclusive: 12.7%
5,Cc1ccc2cc(CN(Cc3ccco3)S(=O)(=O)c3c(C)ccc4nsnc34)c(=O)[nH]c2c1,inconclusive: 17.7%
6,O=C(NCCO)C(=O)NCC1OCCCN1S(=O)(=O)c1cccs1 (stereo not given),inactive: -5.84%
7,Cc1cc(C)c(C#N)c(SCc2ccc(F)cc2)n1,inactive: 2.93%
8,Cc1ccc(/C=N/N2C(=O)c3ccccc3NC2c2ccc(C)cc2)cc1 (stereo not given),inactive: 5.56%
9,CCC(CC)C(=O)Nc1ccc(Nc2ccccc2)cc1,inconclusive: 21.8%
10,CC(C)Cn1c(N)c(C(=O)COC(=O)[C@H](C)NC(=O)c2ccccc2Cl)c(=O)n(C)c1=O,inactive: 10.5%
11,CN(C)CCNc1c2c(nc3ccccc13)CCC2,inactive: 8.23%
12,Cc1ccc(C)c(OCc2nnc(SCC(=O)NC(=O)NCc3ccco3)o2)c1,inconclusive: 22.2%
13,O=C(NCc1ccco1)c1cc2c(s1)CSC2,inconclusive: 21.6%
14,CN(C)/C=C/C(=O)c1ccc(Oc2ccccc2)cc1,inconclusive: 18.7%
15,CS(=O)(=O)Nc1ccc(C2=NN(C(=O)c3ccco3)C(c3ccco3)C2)cc1 (stereo not given),inconclusive: 19%
16,Nc1nc(SCc2ccccc2Cl)nc2nc3c(cc12)CCCC3,inactive: 5.42%
17,c1ccc2c(c1)ncn2Cc1nnc2sc(-c3ccncc3)nn12,inactive: -1.87%
18,CCN(CC)CCN(C)C(=O)c1ccc(OC2CCN(C(=O)C3CC3)CC2)cc1,inconclusive: 16.6%
19,CC(C)(C)c1ccc(-c2nnc(SCCC#N)n2C2CCCC2)cc1,inconclusive: 19.4%
20,CC(C(=O)Nc1ccc(C(=O)O)c(O)c1)N1C(=O)/C(=C\c2ccco2)SC1=S (stereo not given),inconclusive: 23%
21,CC1CCCC(NC(=S)Nc2ccc(SC(F)F)cc2)C1C (stereo not given),inconclusive: 16.2%
22,Cc1ccccc1CCNC(=O)Cn1nc(C)c2c(C)n(-c3ccccc3)nc2c1=O,inactive: 4.63%
23,O=C(N/N=C/c1cc2c(cc1Cl)OCO2)c1ccncc1,inconclusive: 14.6%

row,Compound,inhibition
1,OCCc1ccccc1,inactive: -2.25%
2,O=C(CN1CCSCC1)N/N=C/c1ccc(F)cc1,inconclusive: 15.6%
3,O=C(Nc1cccc(NC(=O)c2ccco2)c1)c1ccc2c(c1)OCO2,inconclusive: 23.3%
4,CCN(CC(=O)Nc1ccccc1C(F)(F)F)C(=O)COc1cccc2c1OC(C)(C)C2,inconclusive: 14.3%
5,COc1cccc(NC(=O)N2CCCCCC2)c1,inactive: -2.51%
6,Cc1cccc(OCC2CCCN(Cc3nc(C4CC4)no3)C2)c1 (stereo not given),inconclusive: 19.4%
7,Cc1nc(Nc2ccc(F)cc2)nc(Nc2ccc(F)cc2)c1[N+](=O)[O-],inactive: -7.83%
8,CCCC(=O)Oc1ccc(N(C(=O)CCC)S(=O)(=O)c2cccc([N+](=O)[O-])c2)cc1,active: 50.1%
9,COc1ccccc1NC(=O)CSC(N)=O,active: 63.1%
10,COc1ccccc1NC(=O)Oc1ccc(C(C)=O)cc1,inconclusive: 26.8%
11,COc1ccc(CNC(=O)c2cccc(NC3=NC4CS(=O)(=O)CC4S3)c2)cc1 (stereo not given),inconclusive: 20.5%
12,Cc1ccc(C(=O)c2c[nH]c3c(F)cc(F)cc3c2=O)cc1,inconclusive: 18.2%
13,O=C1NC2(CCCCCC2)C(=O)N1Cc1cccc([N+](=O)[O-])c1,inconclusive: 12.2%
14,COC(=O)c1cc(Cc2ccc(N)c(C(=O)OC)c2)ccc1N,inactive: -9.03%
15,Cc1cc(C)c2c3c(oc2n1)C(=O)N(c1cccc(Cl)c1)CC(=O)N3,inconclusive: 16.5%
16,O=C1C2C3C=CC(C3)C2C(=O)N1CCCO (stereo not given),inconclusive: 19.6%
17,O=C(CSc1nnnn1-c1ccc(O)cc1)c1ccc(F)cc1,inconclusive: 12.8%
18,Cc1cc(C(=O)OCn2nnc3ccccc3c2=O)c(C)o1,inactive: 4.23%
19,CN(CC(=O)Nc1ccc(N2CCOCC2)cc1)Cc1c(O)ccc2ccccc12,inconclusive: 10.6%
20,CN(C)CCn1c2c(c(SCC(=O)Nc3ccccc3C(F)(F)F)nc1=O)CCCC2,inconclusive: 19.1%
21,COc1cc(/C=N/NC(=O)C(=O)Nc2ccccn2)ccc1O,inconclusive: 25.4%
22,Cc1ccc(-c2n[nH]c(=S)c3ccccc23)cc1,inconclusive: 20.8%
23,Cc1onc(-c2c(Cl)cccc2Cl)c1NC(=O)NNc1ccccn1,inactive: -3.46%

# Quoted at random: 3 records from the list, in no set order.
row,Compound,inhibition
21,COc1cc(/C=N/NC(=O)C(=O)Nc2ccccn2)ccc1O,inconclusive: 25.4%
15,CS(=O)(=O)Nc1ccc(C2=NN(C(=O)c3ccco3)C(c3ccco3)C2)cc1 (stereo not given),inconclusive: 19%
20,CC(C(=O)Nc1ccc(C(=O)O)c(O)c1)N1C(=O)/C(=C\c2ccco2)SC1=S (stereo not given),inconclusive: 23%

# Filtered by structure: the entries above with a thiophene ring, fused or not (2)
row,Compound,inhibition
6,O=C(NCCO)C(=O)NCC1OCCCN1S(=O)(=O)c1cccs1 (stereo not given),inactive: -5.84%
13,O=C(NCc1ccco1)c1cc2c(s1)CSC2,inconclusive: 21.6%

# (listing goes on)

row,Compound,inhibition
1,Cc1ccc2cc3c(N)c(C(=O)N4CCOCC4)sc3nc2c1,inactive: 3.13%
2,COC(=O)Cc1[nH]nc2c1C(c1ccc(O)c(OC)c1)C(C#N)=C(N)O2 (stereo not given),inactive: -1.82%
3,C=CCNC(=S)NNC(=O)c1ccc(=O)n(Cc2ccccc2)c1,inconclusive: 14.3%
4,OCCN1CCN(Cc2cc(Cl)c3cccnc3c2O)CC1,inactive: 1.98%
5,CCCc1[nH]nc2c1C(c1cccc(OC(=O)c3ccco3)c1)C(C#N)=C(N)O2 (stereo not given),inconclusive: 23.2%
6,Cc1ccc(-c2cc(C(=O)Nc3cccnc3)c3ccccc3n2)o1,inconclusive: 15.8%
7,Cc1cc(SCC(=O)c2ccccc2)nc(=O)[nH]1,active: 45.1%
8,CC[C@@]12C(=O)N(c3cccc(Br)c3)C(=O)N1[C@H](c1ccc(Cl)cc1)[C@@H]1C(=O)N(C3CCCCC3)C(=O)[C@@H]12,inconclusive: 21.8%
9,COc1ccc(CCn2c(C)cc(C(=O)CSc3nnnn3-c3ccccc3)c2C)cc1,inactive: 5.88%
10,CCCc1[nH][nH]c(=O)c1C(c1ccc(Cl)cc1)C(C#N)C#N (stereo not given),inconclusive: 32%
11,CCCCCCc1ccc(OCC(=O)OC)cc1OCC(=O)OC,inconclusive: 25.6%
12,N/C(=N\OCc1ccccc1)c1nonc1N,inconclusive: 9.95%
13,CCOC(=O)c1c(C)c(C(=O)NCc2cccs2)c(C)n1CC,inconclusive: 15.3%
14,Cc1noc(C)c1COc1cccc(C(=O)Nc2ccc(OCc3ccccc3)cc2)c1,inconclusive: 30.5%
15,CC1(C)CC(=O)C=C(Nc2ccc(C(=O)O)cc2)C1,inconclusive: 20.4%
16,COc1ccc(N2C(=O)/C(=C/c3cccs3)NC2=S)cc1,inactive: 11.8%
17,COCCCN(Cc1ccco1)C(=O)CSc1nc2ncccc2[nH]1,inconclusive: 15.8%
18,O=Cc1cccc(Oc2ccc([N+](=O)[O-])cc2[N+](=O)[O-])c1,inactive: 0.18%
19,COC(=O)c1sc2ncn(N)c(=O)c2c1C,inactive: 3.96%
20,Cc1cc(C(=O)C(=O)NC(C)C)c(C)n1-c1ccc([N+](=O)[O-])cc1,inactive: 1.4%
21,c1ccc(-c2nnc(-c3c[nH]c4ccccc34)nc2-c2ccccc2)cc1,inactive: 4.94%
22,Cc1cc(C(=O)Nc2ccon2)cs1,inconclusive: 18.6%
23,COc1ccccc1C(=O)C1CCCN(C(=O)CCC(=O)c2ccccc2)C1 (stereo not given),inconclusive: 21.7%

row,Compound,inhibition
1,CCCN(CCC)Cc1c(C(=O)N/N=C/c2c[nH]c3ccccc23)nnn1-c1nonc1N,active: 31.6%
2,CC(C)C(=O)N(Cc1ccc(F)cc1)Cc1nc2ccccc2c(=O)[nH]1,inconclusive: 24.9%
3,CCS(=O)(=O)c1ccc(O)c(NC(=O)/C=C/c2ccccc2)c1,inconclusive: 26.4%
4,CS(=O)(=O)N(Cc1ccc(C(=O)NN=C2CCCCCC2)cc1)c1ccccc1,inconclusive: 27.6%
5,COC(=O)c1ccc(NC(=S)NN2CCCCC2c2cccnc2)cc1 (stereo not given),inconclusive: 22.5%
6,Cc1cc2ccccn2c1C(=O)c1ccc(Cl)c([N+](=O)[O-])c1,inactive: 3.06%
7,O=C(CNS(=O)(=O)c1ccc(Cl)c(C(F)(F)F)c1)NC1CCCCC1,inconclusive: 11.3%
8,CN=C(Nc1cc(C)nn1CCC#N)c1ccc(F)cc1,inconclusive: 14.1%
9,COCCNC(=O)Cn1nc(-c2ccc(C)cc2)ccc1=O,inconclusive: 7.96%
10,Clc1ccccc1Nc1ncnc2c1nnn2Cc1ccccc1,inactive: -0.696%
11,COc1ccc(C(=O)NCC(C)NC(=O)c2ccc(OC)c(Br)c2)cc1Br (stereo not given),inconclusive: 19.3%
12,Cc1ccc(C(=O)OC(C)C(=O)NC(C)CCc2ccccc2)o1 (stereo not given),inactive: 2.09%
13,S=c1[nH]nc(-c2cccc(Cl)c2)n1Cc1ccccc1,inactive: -1.64%
14,COc1cc2c(cc1OC)C1=C(C#N)CN(CC(=O)O)CN1CC2,inconclusive: 17.9%
15,Cc1cc(C)c(S(=O)(=O)N2CCCc3ccccc32)c(C)c1,inconclusive: 23.4%
16,COc1ccc(C(=O)Oc2ccc(=O)n(-c3ccccc3)n2)cc1,active: 76.3%
17,O=C(CN(C(=O)c1ccc(Cl)cc1Cl)N1C(=O)C2C3C=CC(C3)C2C1=O)c1ccc(F)cc1 (stereo not given),inconclusive: 19.2%
18,C=CC[C@H](CC(=O)N(CCO)Cc1ccccc1)C(=O)N[C@@H](COC(=O)[C@@H](CC=C)Cc1ccc(F)cc1)Cc1c[nH]c2ccccc12,active: 38.9%
19,CCOc1ccccc1N(CC(=O)Nc1ccccc1)S(=O)(=O)c1ccccc1,inconclusive: 17.5%
20,COc1ccc(/C=C/C(=O)N2CCC(c3ccccc3)C2)cc1 (stereo not given),inconclusive: 17.5%
21,C=C1CCC[C@]2(C)C[C@H]3OC(=O)C(CNC(C)CC)[C@H]3CC12 (stereo not given in full),inconclusive: 15.3%
